Test results as given in US20240368668A1, “SUBSTRATES AND BIOMARKERS OF ADAMTS7” (The Broad Institute, Inc., priority 2021, published 2024).

Key:
mouse ADAMTS7 [1] = experiment: TMT10 TAILS N-terminomics, SMC2 experiment (process replicates, trypsin/AspN digest); type: cell-based; details: for SMC2 TAILS.total Intensity: SMC2 experiment, total intensity of the N-terminal (TAILS) peptide
Method in brief: (§1)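 Full-length mouse ADAMTS7 (WT or E373Q mutant, C-terminal 3xFLAG) or luciferase was transduced via adenovirus, 50 MOI, into HCA-SMC (SMC1, SMC2) or HUVEC. SMC1: pooled media, technical triplicates 400 ug; SMC2: process triplicates 300 ug; HUVEC: process triplicates 200 ug, bFGF2 10 ng/ml.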

mouse ADAMTS7 [2] = experiment: TMT10 TAILS N-terminomics, HUVEC experiment (process replicates, trypsin/AspN digest); type: cell-based, human; details: for ATS7_HUVEC_TAILS_frxns_mATS7inDB_AspGluN.total Intensity: HUVEC TAILS experiment, total MS intensity of the N-terminal (neo-N-terminal) peptide identified by TAILS_id; for HUVEC TAILS.total Intensity: HUVEC experiment, total intensity of the N-terminal (TAILS) peptide
Excerpt: ADAMTS7 Expression, Cell Culture and Preparation of the Secreted Proteins—Full-length mouse Adamts7 1-1857 (Uniprot Q68SA9, WT or E373Q catalytic mutant) with a carboxyl terminal 3xFLAG tag was used to generate custom adenoviruses as previously described. Adeno-CMV-Luciferase (Ad-Luc) from Vector Biolabs was used as a negative control. Human Coronary Artery Smooth Muscle Cells (HCA-SMC) were obtained from Lonza and expanded in Lonza SmGM-2 media in 15 cm tissue culture plates. Twenty-four hours before media collection, near confluent plates were transduced with 50 MOI adenovirus and switched to Lonza Basal SM media with volumes of 20 ml per 15 cm plate. Expression of the Flag tagged ADAMTS7 was confirmed from the media using western blot and detected using the anti-Flag M2-HRP antibody (Sigma, A8592). Collected media was processed by adding protease inhibitors (1 mM EDTA and 1 mM PMSF) and clarified by 500 g×5 min spin at 4 C to pellet cell debris. Cell media supernatants were then passed through a 0.22 um filter and kept chilled. Processed media was then concentrated 50-100× using 3 kDa Centricon Plus-70 filter unit, spun at 3,500 g×60 min at 4 C. Approximately 10% of the processed, concentrated media was set aside for total secretome proteolytic analysis. The remaining 90% of the processed, concentrated media was buffer exchanged into 50 mM HEPES pH 8.0, 150 mM NaCl (2×50 ml) using the 3 kDa Centricon Plus-70 filter unit and concentrated to >2 mg/ml to serve as input for the TAILS experiment. Secretome and TAILS input samples were stored at −80° C.
For the first experiment, referred to as SMC1, 120 ml of media from 6×15 cm dishes was pooled from each condition (Luc, WT, EQ) and processed to produce three separate inputs for the TAILS experiment. Luc, WT and EQ inputs from the SMC1 experiment were each divided into triplicate 400 ug samples to generate technical replicate TAILS data. For the second experiment, referred to as SMC2, media was processed separately in triplicate for each condition (Luc1, Luc2, Luc3, WT1, WT2, WT3, EQ1, EQ2, EQ3) using 60 ml of media from 3×15 cm dishes for each process replicate. Inputs from the SMC2 experiment used process replicates of 300 ug each to generate TAILS data. The third experiment used input from cultured Human umbilical vein endothelial cells (HUVEC) from Lifeline Cell Technology grown in VascuLife Media and transduced in Lifeline Basal EC (+bFGF2 10 ng/ml). The HUVEC experiment used the same strategy as the SMC2 experiment, with 40 ml of media from 2×15 cm dishes for each process replicate and used 200 ug each to generate TAILS data. Inputs for process replicate experiments were restricted to the lowest concentration from the 9 parallel samples for SMC2 or HUVEC.
TMT10 isotopic labeling and negative selection of non-labeled peptides-Sample preparation was performed based on the TAILS protocol from the Overall lab with some modifications. From a single experiment, nine parallel protein samples in 50 mM HEPES pH 8.0, 150 mM NaCl were separately denatured with guanidinium chloride (Sigma, G4505) to reach a final concentration of 2.5M guanidinium chloride and 250 mM HEPES and incubated at 65° C. for 15 min. Reduction was achieved through addition of tris(2-carboxylethyl) phosphine (TCEP) at a final concentration of […] and incubated at 65° C. for 45 min. Alkylation reaction was performed with addition of iodoacetamide (IAA, Sigma, A3221) to a final concentration of 10 mM IAA for 15 min at room temperature in the dark. Following denaturation, reduction and alkylation steps, ten percent of each of the nine parallel protein samples was removed and combined to serve as a pooled reference. Isobaric tags were added to free amine groups using the TMT10plex Isobaric Mass Tagging Kit (ThermoFisher, 90113) with TMT channels randomly assigned to the nine samples and TMT 131 assigned to the pooled reference. […]

mouse ADAMTS7 [3] = experiment: TMT10 TAILS N-terminomics, SMC1 experiment (Ad-mADAMTS7 WT vs EQ vs Luc, technical replicates, trypsin digest); type: cell-based; details: for SMC1 TAILS.total Intensity: TAILS HC Overlap, total intensity of the peptide
Method in brief: as §1

[4] = total intensity of the N-terminal peptide spectra, SMC rd2 TAILS fractions, AspN/GluC search
[5] = SMC rd2 TAILS, AspGluN search, total spectral intensity of the N-terminal peptide (TAILS_id = gene_StartAA cleavage site)
[6] = TAILS N-terminal peptide identified in SMC conditioned media (scale-up, fractions), mouse ADAMTS7, value listed per TAILS_id (protein_StartAA)

| Substance | SMC2 TAILS.total Intensity (mouse ADAMTS7 [1]) | ATS7_HUVEC_TAILS_frxns_mATS7inDB_AspGluN.total Intensity (mouse ADAMTS7 [2]) | HUVEC TAILS.total Intensity (mouse ADAMTS7 [2]) | also measured |
| --- | --- | --- | --- | --- |
| ECM1_108 (QEAVPLQK; listed as Homo sapiens) | 2.41E+09 | 1.47E+08 | 1.47E+08 | ATS7_SMC_rd2_TAILS_frxns_matS7inDB_AspGluN_retry.totalIntensity (mouse ADAMTS7 [1]; [4]): 2.41E+09 |
| FN1_35 (QMVQPQSPVAVSQSKPGCY; listed as Homo sapiens) | 2.65E+10 | 2.07E+10 | 2.07E+10 | ATS7_SMC_rd2_TAILS_frxns_matS7inDB_AspGluN_retry.totalIntensity (mouse ADAMTS7 [1]; [4]): 2.65E+10 |
| FN1_607 (SSSGPVEVFIT; listed as Homo sapiens) | 1.24E+11 | 4.88E+09 | 8.05E+09 | ATS7_SMC_rd2_TAILS_frxns_matS7inDB_AspGluN_retry.totalIntensity (mouse ADAMTS7 [1]; [4]): 1.24E+11 |
| FN1_1624 (LVQTAVTTIPAPT; listed as Homo sapiens) | – | 6.33E+09 | – | – |
| FN1_1743 (WESPQGQVSR; listed as Homo sapiens) | – | 9.68E+08 | – | – |
| FN1_1780 (LQGLRPGSEYTVSVVALH; listed as Homo sapiens) | 4.09E+09 | 2.82E+09 | 2.82E+09 | ATS7_SMC_rd2_TAILS_frxns_matS7inDB_AspGluN_retry.totalIntensity (mouse ADAMTS7 [1]; [4]): 4.09E+09 |
| FN1_1805 (LIGTQSTAIPAPT; listed as Homo sapiens) | 5.10E+10 | 4.74E+10 | 4.74E+10 | ATS7_SMC_rd2_TAILS_frxns_matS7inDB_AspGluN_retry.totalIntensity (mouse ADAMTS7 [1]; [4]): 5.10E+10 |
| FN1_2113 (FVTHPGY; listed as Homo sapiens) | 5.02E+09 | 2.71E+09 | 2.71E+09 | ATS7_SMC_rd2_TAILS_frxns_matS7inDB_AspGluN_retry.totalIntensity (mouse ADAMTS7 [1]; [4]): 5.02E+09 |
| FSTL1_290 (LQKHQETA; listed as Homo sapiens) | 5.17E+08 | 1.45E+08 | 1.45E+08 | ATS7_SMC_rd2_TAILS_frxns_matS7inDB_AspGluN_retry.totalIntensity (mouse ADAMTS7 [1]; [5]): 5.17E+08 |
| LOX_125 (FQAGYSTSR; listed as Homo sapiens) | 1.92E+10 | 1.50E+09 | 1.50E+09 | ATS7_SMC_rd2_TAILS_frxns_matS7inDB_AspGluN_retry.totalIntensity (mouse ADAMTS7 [1]; [5]): 1.92E+10 |
| LTBP2_79 (VAGLQPVER; listed as Homo sapiens) | 6.41E+07 | 9.87E+08 | 9.87E+08 | ATS7_SMC_rd2_TAILS_frxns_matS7inDB_AspGluN_retry.totalIntensity (mouse ADAMTS7 [1]; [5]): 6.41E+07 |
| LTBP2_129 (QQQPAPR; listed as Homo sapiens) | – | 4.46E+09 | – | – |
| LTBP2_250 (SAAGEGTLAR; listed as Homo sapiens) | 1.86E+08 | 9.28E+08 | 9.28E+08 | ATS7_SMC_rd2_TAILS_frxns_matS7inDB_AspGluN_retry.totalIntensity (mouse ADAMTS7 [1]; [5]): 1.86E+08 |
| LTBP2_253 (GEGTLAR; listed as Homo sapiens) | – | 3.80E+10 | – | – |
| LTBP3_164 (LSTGALPPLAPEG; listed as Homo sapiens) | – | 1.18E+08 | – | – |
| LTBP3_205 (HAAFLVPLGPGQISA; listed as Homo sapiens) | – | 8.70E+07 | – | – |
| LTBP3_221 (VQAPPPVVNVR; listed as Homo sapiens) | – | 6.41E+08 | – | – |
| MCFD2_55 (HLEGVINKPEA; listed as Homo sapiens) | – | 2.54E+08 | – | – |
| MMP2_193 (HAFAPGTGVGG; listed as Homo sapiens) | – | 5.68E+08 | – | – |
| NUCB1_317 (FLASTQR; listed as Homo sapiens) | – | 1.67E+08 | 1.67E+08 | SMC1 TAILS.total Intensity (mouse ADAMTS7 [3]): 1.78E+08; TAILS_SMC_Scaleup_fxns_mATS7i (mouse ADAMTS7 [3]; [6]): 1.78E+08 |
| NUCB1_389 (LQQAVLHMEQR; listed as Homo sapiens) | – | 4.02E+08 | 4.02E+08 | SMC1 TAILS.total Intensity (mouse ADAMTS7 [3]): 1.01E+08; TAILS_SMC_Scaleup_fxns_mATS7i (mouse ADAMTS7 [3]; [6]): 1.01E+08 |
| PSAP_301 (LVEPIKKH; listed as Homo sapiens) | – | 8.06E+08 | – | – |
| PTBP1_376 (AAAAAGR; listed as Homo sapiens) | – | 2.41E+09 | – | – |
| PZP_578 (HAHLQVAAAPQSLCALR; listed as Homo sapiens) | – | 5.67E+07 | – | – |
| SERBP1_56 (QAAAQTNSNAAGKQLR; listed as Homo sapiens) | – | 4.86E+07 | 4.86E+07 | SMC1 TAILS.total Intensity (mouse ADAMTS7 [3]): 9.32E+07; TAILS_SMC_Scaleup_fxns_mATS7i (mouse ADAMTS7 [3]; [6]): 9.32E+07 |
| THBS1_630 (FGQGVEHATANK; listed as Homo sapiens) | – | 4.11E+08 | – | – |
| THBS2_290 (LSENLKR; listed as Homo sapiens) | – | 1.83E+08 | 1.83E+08 | SMC1 TAILS.total Intensity (mouse ADAMTS7 [3]): 4.15E+08; TAILS_SMC_Scaleup_fxns_mATS7i (mouse ADAMTS7 [3]; intensity of the N-terminal (TAILS) peptide in SMC scale-up TAILS experiment, fractions, peptide identified by TAILS_id (gene symbol_StartAA)): 4.15E+08 |
| UQCRH_76 (HGSPNNSERAMRAVGEMCKGPGAAR; oxidized methionine; listed as Homo sapiens) | – | 3.01E+08 | – | – |
| ZYX_244 (PVSLANTQPR; listed as Homo sapiens) | – | 9.45E+08 | – | – |
